{
  "sequences": {"note": "Amino acid sequences for entries named in this document (tags omitted). A change or cut given only in a name is not applied to a line headed by its entry.", "UniProt Q03431": "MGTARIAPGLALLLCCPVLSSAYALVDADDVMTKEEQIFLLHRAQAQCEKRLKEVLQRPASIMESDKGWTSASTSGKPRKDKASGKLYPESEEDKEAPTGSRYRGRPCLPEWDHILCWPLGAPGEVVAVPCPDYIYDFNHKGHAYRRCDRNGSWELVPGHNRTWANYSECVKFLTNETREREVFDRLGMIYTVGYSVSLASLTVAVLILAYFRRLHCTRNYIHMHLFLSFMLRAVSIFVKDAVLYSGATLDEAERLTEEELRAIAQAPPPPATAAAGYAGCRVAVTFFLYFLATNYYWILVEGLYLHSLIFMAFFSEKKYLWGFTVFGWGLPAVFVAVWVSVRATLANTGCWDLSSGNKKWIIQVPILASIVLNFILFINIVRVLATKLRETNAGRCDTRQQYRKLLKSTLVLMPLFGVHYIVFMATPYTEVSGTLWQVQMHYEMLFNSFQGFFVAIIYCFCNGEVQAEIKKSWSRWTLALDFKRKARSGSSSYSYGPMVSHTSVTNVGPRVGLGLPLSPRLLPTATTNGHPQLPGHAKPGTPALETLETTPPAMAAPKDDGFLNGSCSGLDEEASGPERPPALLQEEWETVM"},
  "source": "PubChem BioAssay AID743266",
  "about": "(National Center for Advancing Translational Sciences (NCATS), 2014)",
  "note": "Hit rate of the full screen: of about 410,000 compounds, about 310 (0.076%) were called active. Inconclusive means that the source gave no clear call. Such entries were picked first, then a sample of the others. Calls come from the whole dose curve; as a rule, active = well fitted activation curve with a large enough effect; inconclusive = small, poorly fitted or top-dose-only effect, or another doubt; inactive = no such curve, though single readings can be large or run the other way. Potencies beside an inconclusive call are fits to weak or partial responses and may not hold up. Potency is the fitted concentration of half-maximal effect.",
  "data": [
    {"target": "Parathyroid hormone/parathyroid hormone-related peptide receptor (Homo sapiens) (UniProt Q03431)", "test": "qHTS for PTHR1 Agonists: Primary Screen; note: nearly all actives have a fitted effect of over 55% in size", "details": "HEK293 GP2 PTHR1 cells, GloSensor cAMP luminescence, 1 h; activation: at 115 µM (top of the series) unless noted; series mostly up to 115 µM", "how_it_was_run": "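HEK-293-derived GP2 cells expressing PTHR1 and a GloSensor cAMP reporter, 3,000/well, plated overnight, given luciferin plus IBMX (each 0.5 mM as added) for 1 h at 37 °C, then compound for 1 h at 37 °C. Luminescence was read after 15 min at room temperature.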", "values": [
      {"compound": "COc1ccc(S(=O)(=O)N(C)C)cc1NC(=O)COC(=O)c1nc2nccc(C)n2n1", "Potency": "inconclusive: 126 µM [activator, single point]"},
      {"compound": "O=C(O)c1cc(-c2ccc(N3CCOCC3)cc2)nn1-c1ccccc1Cl", "Potency": "inconclusive: 4.47 µM [activator, partial curve]"},
      {"compound": "COC(=O)c1ccccc1NC(=O)N(Cc1ccc(C)cc1)Cc1cccn1-c1nnc(N2CCCC2=O)s1", "Potency": "inconclusive: 56.2 µM [activator, partial curve, poor fit]"},
      {"compound": "CNS(=O)(=O)c1ccc(CNC[C@H]2O[C@@H](n3cc(C)c(=O)[nH]c3=O)C[C@@H]2O)cc1", "activation": "inactive: -8.86%"},
      {"compound": "CCN(CC)CCNC(=O)c1ccc(NC(=O)C2CC(=O)N(c3ccc4c(c3)OCCO4)C2)cc1", "note": "(centres undefined)", "Potency": "inconclusive: 126 µM [activator, single point]"},
      {"compound": "COc1ccc2c(c1)c1c(c(=O)n(-c3ccc(C)cc3)c(=O)n1CC(=O)Nc1cc(C)ccc1C)n2C", "Potency": "inconclusive: 14.1 µM [activator, partial curve]"},
      {"compound": "CC1CC1C(=O)OCC(=O)NNC(=O)c1ccc([N+](=O)[O-])cc1", "note": "(centres undefined)", "activation": "inactive: -24.8%"},
      {"compound": "O=C(CSc1cccc[n+]1[O-])Nc1cc2c(cc1Cl)C(=O)c1ccccc1C2=O", "outcome": "inactive"},
      {"compound": "O=C(O)c1ccc(Nc2nc3ccc(Cl)cc3[nH]2)cc1", "Potency": "inconclusive: 112 µM [activator, single point]"},
      {"compound": "Cc1ccc(F)cc1C(=O)N1CCCCC1c1cc(C(=O)NCc2ccccc2)no1", "note": "(centres undefined)", "outcome": "inactive"},
      {"compound": "CCNC(=O)Cc1c(OC)ccc2cc(Br)ccc12", "activation": "inactive: -22.2%"},
      {"compound": "CCN(CC(=O)Nc1ccc([N+](=O)[O-])cc1OC)c1ccccc1", "outcome": "inactive [at 57.5 µM]"},
      {"compound": "Cc1noc(C)c1C(=O)Nc1cccc(S(=O)(=O)N2CCCCC2)c1", "Potency": "inconclusive: 56.2 µM [activator, single point]"},
      {"compound": "Cn1c(SCC(=O)NC2CCCC2)nnc1C(F)(F)F", "Potency": "inconclusive: 100 µM [activator, single point]"},
      {"compound": "CCOC(=O)C1CCN(C(=O)C(=O)c2cn(CC(=O)N3CCCCCC3)c3ccccc23)CC1", "Potency": "inconclusive: 0.767 µM [activator, full curve]"},
      {"compound": "CN1N=C2c3ccccc3CCCC2C1c1ccc(F)cc1", "note": "(centres undefined)", "activation": "inconclusive: -43.2% [activator]"},
      {"compound": "CCC1CCCCN1C(=O)COc1ccc2c(c1)OCO2", "note": "(centres undefined)", "Potency": "inconclusive: 89.1 µM [activator, partial curve, poor fit]"},
      {"compound": "Cc1cc(C(=O)NC2=NCCS2)c2ccccc2n1", "Potency": "inconclusive: 158 µM [activator, single point]"},
      {"compound": "O=C(NNC(=O)c1cc2cc3ccccc3nc2s1)c1cccc(Cl)c1", "activation": "inactive: -16.7%"}
    ]}
  ]
}
